Assay results as given in patent US20210283110A1, “COMPOUND FOR USE IN THE TREATMENT OF A DISEASE CHARACTERIZED BY DYSREGULATED MUCUS PRODUCTION AND/OR SECRETION” (UNIVERSITÄT REGENSBURG, priority 2018, published 2021).
At least one structure is not confirmed: it was looked up by name or label, or the drawing left a doubt.

Tests used:
endogenous TMEM16A = test: Iodide quenching of YFP in HT29 cells stimulated with ionomycin; assay type: cell-based
Experimental: FIG. 15: Inhibition of TMEM16A and TMEM16F by niclosamide. • A) TMEM16A whole cell currents in overexpressing HEK293 cells. […] Rate of YFP quenching (arbitrary units (au/second), when applying 20 mM iodide to the extracellular bath solution. HT29 cells stably overexpressing YFP were stimulated with […] ionomycin. 100,000 cells were seeded/well. Mean±SEM; (number of experiments) #significant inhibition when compared to the absence of the inhibitor (p<0.05; unpaired t-test); *significant activation by UTP (paired t-test).
Similar to TMEM16A, also overexpressed TMEM16F was inhibited by niclosamide (FIG. 15D). The effect of niclosamide was also examined on endogenous TMEM16A expressed in HT29 colonic carcinoma cells, which were stably transfected with iodide-sensitive yellow fluorescent protein (YFP). TMEM16A was activated by ionomycin and TMEM16A currents were measured as iodide quenching.

TMEM16A = biological target: T1, TMEM16A (Homo sapiens, UniProt Q5XXA6); set-up: expressed in transfected cells; host or cells: HEK293 cells; conditions: Miner et al. [3]; cited from earlier work
T1 sequence (Q5XXA6 1-986): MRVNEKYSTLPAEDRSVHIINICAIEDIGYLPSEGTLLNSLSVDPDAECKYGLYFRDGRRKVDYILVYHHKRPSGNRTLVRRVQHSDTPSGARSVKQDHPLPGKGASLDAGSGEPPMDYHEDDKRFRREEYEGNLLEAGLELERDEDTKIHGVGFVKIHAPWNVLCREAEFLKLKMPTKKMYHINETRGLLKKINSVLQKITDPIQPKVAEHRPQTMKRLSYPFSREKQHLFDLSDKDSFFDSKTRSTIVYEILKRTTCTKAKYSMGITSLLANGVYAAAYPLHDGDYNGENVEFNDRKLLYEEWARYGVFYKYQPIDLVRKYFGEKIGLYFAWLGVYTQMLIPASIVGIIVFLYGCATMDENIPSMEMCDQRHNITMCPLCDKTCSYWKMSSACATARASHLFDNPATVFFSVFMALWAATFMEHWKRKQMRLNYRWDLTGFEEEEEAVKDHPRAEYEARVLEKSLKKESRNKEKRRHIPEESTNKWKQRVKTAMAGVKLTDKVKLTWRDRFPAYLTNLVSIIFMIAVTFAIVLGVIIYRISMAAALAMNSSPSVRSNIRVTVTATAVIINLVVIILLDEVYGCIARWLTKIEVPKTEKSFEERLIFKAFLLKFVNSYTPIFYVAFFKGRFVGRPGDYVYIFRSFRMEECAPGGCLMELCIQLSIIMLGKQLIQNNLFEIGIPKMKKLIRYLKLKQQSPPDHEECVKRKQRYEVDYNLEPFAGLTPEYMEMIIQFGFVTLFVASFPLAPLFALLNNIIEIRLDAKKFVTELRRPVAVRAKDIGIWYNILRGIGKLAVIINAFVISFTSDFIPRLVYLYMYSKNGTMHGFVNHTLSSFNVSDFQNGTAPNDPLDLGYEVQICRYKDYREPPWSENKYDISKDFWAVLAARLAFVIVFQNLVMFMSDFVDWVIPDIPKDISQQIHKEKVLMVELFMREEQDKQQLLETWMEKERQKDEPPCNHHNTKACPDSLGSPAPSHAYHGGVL

Structure (SMILES): CC(=O)Oc1ccccc1C(=O)Nc1ncc([N+](=O)[O-])s1 [nitazoxanide, [2-[(5-nitro-1,3-thiazol-2-yl)carbamoyl]phenyl]acetate]
- potency compared with CaCCinhAO1 or dichlorophen (endogenous TMEM16A; HT29 YFP iodide quenching): more potent
- inhibition of endogenous TMEM16A (iodide quenching of YFP) (endogenous TMEM16A; HT29 cells stably expressing YFP, ionomycin, 20 mM iodide): low nanomolar range
- TMEM16A inhibition (TMEM16A): inhibitors of TMEM16A
